Measured values as given in patent US6660910B1, “Selection marker” (Syngenta Mogen B.V., priority 1997, dated 2003).
Some results were stated once for a whole list of compounds, not compound by compound.

System: root segments of Arabidopsis thaliana cv. C24
Experiment: Arabidopsis root transformation with selection on cyanamide or kanamycin
Assay type: cell-based
Settings: pMOG 1156
Description: Described below is the method used for transformation of root segments of Arabidopsis thaliana cv. C24 using Agrobacterium tumefaciens. The binary vectors for this transformation method are identical to those described above.
Six mg of Arabidopsis seeds were germinated in a flask containing liquid Germination Medium (GM) under 16 h light period (1700 lux) at 24° C. and a 8 h dark period at 21° C. at 80 rpm. (The contents of various media can be found in Table 4). Roots of 9 days old seedlings were isolated in a sterile petridish and collected in a drop of Germination Medium (GM). Roots were cut in segments of approximately 3-5 mm and approximately 100 explants were spread evenly on a nylon membrane (O 8 cm) which was placed on plates containing Callus Inducing Medium (CIM). The plates were incubated 3 days under the same conditions as described above.
The Agrobacterium strain used in this study harbored a rifampicin selection marker in a C 58 chromosomal background. The construction of the helper strain MOG101 is described by Hood et al. (1993).
Agrobacteria were grown overnight in LB medium with antibiotics (rifampicin 20 mg/l, kanamycin 100 mg/l). The overnight culture was diluted 1:10 in LB without antibiotics and grown for approximately 3 hours. Bacterial suspensions were centrifuged at 1600×g for 15 minutes at room temperature. […]

Row | SMILES | Amount of shoots developed per petridish (kanamycin selection) | Amount of shoots developed per petridish (lower cyanamide concentrations)
1 | NC[C@H]1O[C@H](O[C@H]2[C@H](O)[C@@H](O[C@H]3O[C@H](CO)[C@@H](O)[C@H](N)[C@H]3O)[C@H](N)C[C@@H]2N)[C@H](O)[C@@H](O)[C@@H]1O [Kanamycin] | 70-100 per petridish | –
2 | N#CN [Cyanamide] | – | 70-100 per petridish
